Results deposited as PubChem BioAssay AID1259254 (NCATS, 2017)
Here is a random part of about 59,000 reagents tested. Over the whole deposit, about 1,550 (2.6%) were called active. 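G2 share is only a proxy for re-replication; each gene was hit by three separate siRNAs, and active genes were retested.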 Not all columns of the deposit are shown. Not given: the amount of reagent.

Purpose: 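Genome-wide screen for genes that prevent DNA re-replication in cancer cells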 (primary screen)
Cell system: human HCT116 colorectal cancer cells
Knock-down reagent: single siRNA against human genes
Timing: 3 days
Measured: 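Imaged Hoechst DNA stain sorts each cell into a cycle phase by DNA amount; per plate, G2 fraction set to 0% for non-targeting and 100% for GMNN siRNA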
Reading the numbers: G2 robust z-score: higher = more G2 cells, more excess DNA replication
Hit rule: 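An siRNA counts as active if its G2 robust z-score lies at least 5 MADs above the screen median; here such calls match roughly 38% of GMNN control or more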

The opening 6 entries, ahead of the listing:
gene | PubChem SID | G2 robust z-score | activity call
MMP10 (matrix metallopeptidase 10) | SID160777347 | -0.089 | inactive
MMP10 (matrix metallopeptidase 10) | SID160777348 | 1.43 | inactive
MMP10 (matrix metallopeptidase 10) | SID160777349 | -0.395 | inactive
WIF1 (Wnt inhibitory factor 1) | SID160730180 | -0.783 | inactive
WIF1 (Wnt inhibitory factor 1) | SID160730181 | -0.676 | inactive
WIF1 (Wnt inhibitory factor 1) | SID160730182 | -0.309 | inactive

The listing, repeating the preview:
gene | PubChem SID | G2 robust z-score | activity call
MMP10 (matrix metallopeptidase 10) | SID160777347 | -0.089 | inactive
MMP10 (matrix metallopeptidase 10) | SID160777348 | 1.43 | inactive
MMP10 (matrix metallopeptidase 10) | SID160777349 | -0.395 | inactive
WIF1 (Wnt inhibitory factor 1) | SID160730180 | -0.783 | inactive
WIF1 (Wnt inhibitory factor 1) | SID160730181 | -0.676 | inactive
WIF1 (Wnt inhibitory factor 1) | SID160730182 | -0.309 | inactive
GPLD1 (glycosylphosphatidylinositol specific phospholipase D1) | SID160730994 | 0.561 | inactive
GPLD1 (glycosylphosphatidylinositol specific phospholipase D1) | SID160772866 | 0.0102 | inactive
GPLD1 (glycosylphosphatidylinositol specific phospholipase D1) | SID160772884 | -0.365 | inactive
PLS1 (plastin 1) | SID160714498 | 1.3 | inactive
PLS1 (plastin 1) | SID160714499 | 2.39 | inactive
PLS1 (plastin 1) | SID160714500 | 0.0674 | inactive
MBD2 (methyl-CpG binding domain protein 2) | SID160721163 | -1.21 | inactive
MBD2 (methyl-CpG binding domain protein 2) | SID160721165 | 0.316 | inactive
MBD2 (methyl-CpG binding domain protein 2) | SID160732114 | -0.272 | inactive
SPAAR (small regulatory polypeptide of amino acid response) | SID160759633 | -0.586 | inactive
SPAAR (small regulatory polypeptide of amino acid response) | SID160759634 | -0.718 | inactive
SPAAR (small regulatory polypeptide of amino acid response) | SID160759635 | 2.14 | inactive
OR5D16 (olfactory receptor family 5 subfamily D member 16) | SID160766400 | 1.42 | inactive
OR5D16 (olfactory receptor family 5 subfamily D member 16) | SID160766401 | -0.307 | inactive
OR5D16 (olfactory receptor family 5 subfamily D member 16) | SID160766402 | -0.664 | inactive
OR51T1 (olfactory receptor family 51 subfamily T member 1) | SID160767356 | -0.845 | inactive
OR51T1 (olfactory receptor family 51 subfamily T member 1) | SID160767358 | 0.319 | inactive
OR51T1 (olfactory receptor family 51 subfamily T member 1) | SID160767359 | 0.436 | inactive
SLC4A3 | SID160716790 | -1.36 | inactive
SLC4A3 | SID160716791 | 0.943 | inactive
SLC4A3 | SID160716792 | 1.31 | inactive
CCDC14 (coiled-coil domain containing 14) | SID160747942 | 0.477 | inactive
CCDC14 (coiled-coil domain containing 14) | SID160747943 | 1.7 | inactive
CCDC14 (coiled-coil domain containing 14) | SID160747944 | -0.203 | inactive
TTC33 (tetratricopeptide repeat domain 33) | SID160736531 | -0.382 | inactive
TTC33 (tetratricopeptide repeat domain 33) | SID160736532 | -0.448 | inactive
TTC33 (tetratricopeptide repeat domain 33) | SID160736533 | -0.665 | inactive
DRD2 (dopamine receptor D2) | SID160756285 | -0.205 | inactive
DRD2 (dopamine receptor D2) | SID160756295 | -0.813 | inactive
DRD2 (dopamine receptor D2) | SID160756306 | -0.95 | inactive
YPEL1 (yippee like 1) | SID160733035 | -0.944 | inactive
YPEL1 (yippee like 1) | SID160739181 | -0.601 | inactive
YPEL1 (yippee like 1) | SID160739182 | -0.171 | inactive
ARID3C (AT-rich interaction domain 3C) | SID160757609 | 0.477 | inactive
ARID3C (AT-rich interaction domain 3C) | SID160757610 | 0.946 | inactive
ARID3C (AT-rich interaction domain 3C) | SID160757611 | 1.18 | inactive
HSPB8 (heat shock protein family B (small) member 8) | SID160737961 | 2.55 | inactive
HSPB8 (heat shock protein family B (small) member 8) | SID160737962 | 1.97 | inactive
HSPB8 (heat shock protein family B (small) member 8) | SID160737964 | 0.0605 | inactive
SOCS2 (suppressor of cytokine signaling 2) | SID160720927 | 0.335 | inactive
SOCS2 (suppressor of cytokine signaling 2) | SID160720928 | 0.673 | inactive
SOCS2 (suppressor of cytokine signaling 2) | SID160720930 | -0.457 | inactive
SH3GLB1 (SH3 domain containing GRB2 like, endophilin B1) | SID160740053 | -0.257 | inactive
SH3GLB1 (SH3 domain containing GRB2 like, endophilin B1) | SID160740054 | 6.79 | active
SH3GLB1 (SH3 domain containing GRB2 like, endophilin B1) | SID160740056 | 1.01 | inactive
RAX2 (retina and anterior neural fold homeobox 2) | SID160724639 | 0.979 | inactive
RAX2 (retina and anterior neural fold homeobox 2) | SID160752776 | 0.726 | inactive
RAX2 (retina and anterior neural fold homeobox 2) | SID160752777 | 1.05 | inactive
ITIH6 (inter-alpha-trypsin inhibitor heavy chain family member 6) | SID160731121 | -0.207 | inactive
ITIH6 (inter-alpha-trypsin inhibitor heavy chain family member 6) | SID160764958 | -0.32 | inactive
ITIH6 (inter-alpha-trypsin inhibitor heavy chain family member 6) | SID160764960 | -0.396 | inactive
SNX29 (sorting nexin 29) | SID160735193 | -0.797 | inactive
SNX29 (sorting nexin 29) | SID160751752 | -1.23 | inactive
SNX29 (sorting nexin 29) | SID160751753 | -0.925 | inactive
SNX29 (sorting nexin 29) | SID160751754 | 0.509 | inactive
SNX29 (sorting nexin 29) | SID160754169 | -0.557 | inactive
SNX29 (sorting nexin 29) | SID160754170 | -0.246 | inactive
MTHFR (methylenetetrahydrofolate reductase) | SID160777531 | -0.445 | inactive
MTHFR (methylenetetrahydrofolate reductase) | SID160777532 | 0.249 | inactive
MTHFR (methylenetetrahydrofolate reductase) | SID160777533 | -0.896 | inactive
REXO5 (RNA exonuclease 5) | SID160750949 | 1.19 | inactive
REXO5 (RNA exonuclease 5) | SID160750950 | -0.108 | inactive
REXO5 (RNA exonuclease 5) | SID160750951 | 2.05 | inactive
